Source: PMC4344508
These are yes or no findings as the source states them, for the method shown. Binding seen in cells or lysates may run through a third protein. Here binding means that the protein was enriched with, or labelled near, the bait; the list need not be complete. Tags and fused reporters may be left off the sequences shown.

Molecular target: T1, FLAG-Luzp4 (human) (UniProt Q9P127)
T1 sequence: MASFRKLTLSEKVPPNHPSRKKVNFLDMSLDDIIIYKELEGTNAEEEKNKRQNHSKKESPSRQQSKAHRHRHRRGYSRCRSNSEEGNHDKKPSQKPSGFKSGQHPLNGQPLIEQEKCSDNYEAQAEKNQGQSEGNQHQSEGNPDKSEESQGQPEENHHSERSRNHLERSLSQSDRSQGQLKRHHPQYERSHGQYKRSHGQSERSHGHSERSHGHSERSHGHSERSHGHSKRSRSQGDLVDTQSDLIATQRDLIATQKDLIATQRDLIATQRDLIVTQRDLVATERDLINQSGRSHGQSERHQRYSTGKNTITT
Test: affinity purification with mass spectrometry; anti-FLAG agarose IP of FLAG-Luzp4 from Flp-In T-REx 293 stable cells (control: FLAG cell line), elution with 1 M arginine-HCl pH 3.5, LC-MS/MS

binding: binds
B1: Ars2/Srrt (protein, UniProt Q9BXP5 1-876)
chain: MGDSDDEYDRRRRDKFRRERSDYDRSRERDERRRGDDWNDREWDRGRERRSRGEYRDYDRNRRERFSPPRHELSPPQKRMRRDWDEHSSDPYHSGYEMPYAGGGGGPTYGPPQPWGHPDVHIMQHHVLPIQARLGSIAEIDLGVPPPVMKTFKEFLLSLDDSVDETEAVKRYNDYKLDFRRQQMQDFFLAHKDEEWFRSKYHPDEVGKRRQEARGALQNRLRVFLSLMETGWFDNLLLDIDKADAIVKMLDAAVIKMEGGTENDLRILEQEEEEEQAGKPGEPSKKEEGRAGAGLGDGERKTNDKDEKKEDGKQAENDSSNDDKTKKSEGDGDKEEKKEDSEKEAKKSSKKRNRKHSGDDSFDEGSVSESESESESGQAEEEKEEAEEALKEKEKPKEEEWEKPKDAAGLECKPRPLHKTCSLFMRNIAPNISRAEIISLCKRYPGFMRVALSEPQPERRFFRRGWVTFDRSVNIKEICWNLQNIRLRECELSPGVNRDLTRRVRNINGITQHKQIVRNDIKLAAKLIHTLDDRTQLWASEPGTPPLPTSLPSQNPILKNITDYLIEEVSAEEEELLGSSGGAPPEEPPKEGNPAEINVERDEKLIKVLDKLLLYLRIVHSLDYYNTCEYPNEDEMPNRCGIIHVRGPMPPNRISHGEVLEWQKTFEEKLTPLLSVRESLSEEEAQKMGRKDPEQEVEKFVTSNTQELGKDKWLCPLSGKKFKGPEFVRKHIFNKHAEKIEEVKKEVAFFNNFLTDAKRPALPEIKPAQPPGPAQILPPGLTPGLPYPHQTPQGLMPYGQPRPPILGYGAGAVRPAVPTGGPPYPHAPYGAGRGNYDAFRGQGGYPGKPRNRMVRGDPRAIVEYRDLDAPDDVDFF
